These results are taken from publication PMC7499972.

By UniProt entry, the sequences of proteins in these tests, tags left out. Where a name states a change or a piece, a line headed by the entry shows the natural chain unless it says otherwise.
UniProt Q96KA5: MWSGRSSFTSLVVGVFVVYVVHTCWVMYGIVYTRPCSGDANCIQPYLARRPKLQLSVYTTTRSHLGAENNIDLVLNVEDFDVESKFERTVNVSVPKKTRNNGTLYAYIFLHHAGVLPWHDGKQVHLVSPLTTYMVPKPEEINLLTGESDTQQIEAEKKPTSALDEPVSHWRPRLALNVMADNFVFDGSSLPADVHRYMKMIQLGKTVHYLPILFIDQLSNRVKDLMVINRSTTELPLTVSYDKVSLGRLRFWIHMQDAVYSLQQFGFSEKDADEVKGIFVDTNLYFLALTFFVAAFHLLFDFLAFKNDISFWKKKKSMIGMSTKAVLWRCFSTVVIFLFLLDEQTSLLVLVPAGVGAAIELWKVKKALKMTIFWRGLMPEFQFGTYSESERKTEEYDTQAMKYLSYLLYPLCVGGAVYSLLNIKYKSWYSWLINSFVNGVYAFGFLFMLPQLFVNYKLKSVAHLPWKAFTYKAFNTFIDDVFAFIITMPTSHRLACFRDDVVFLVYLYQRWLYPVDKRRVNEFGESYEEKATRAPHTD
UniProt Q92731: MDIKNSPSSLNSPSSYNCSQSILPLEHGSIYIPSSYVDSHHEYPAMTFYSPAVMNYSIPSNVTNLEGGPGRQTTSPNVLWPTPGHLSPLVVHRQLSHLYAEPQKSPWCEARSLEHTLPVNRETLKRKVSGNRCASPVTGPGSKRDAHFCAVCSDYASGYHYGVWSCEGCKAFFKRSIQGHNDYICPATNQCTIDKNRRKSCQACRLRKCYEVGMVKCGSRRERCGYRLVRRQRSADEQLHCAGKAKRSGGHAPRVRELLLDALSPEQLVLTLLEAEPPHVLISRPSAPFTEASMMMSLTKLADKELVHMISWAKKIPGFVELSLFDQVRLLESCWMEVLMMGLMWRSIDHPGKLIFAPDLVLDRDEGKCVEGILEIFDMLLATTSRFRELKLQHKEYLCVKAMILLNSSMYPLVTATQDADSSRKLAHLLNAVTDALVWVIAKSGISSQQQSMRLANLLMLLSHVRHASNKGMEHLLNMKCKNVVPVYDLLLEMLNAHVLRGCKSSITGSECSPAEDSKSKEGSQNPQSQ

The assay deals with recombinant GST-CLPTM1L, wild type (human) (UniProt Q96KA5). Briefly: pull-down; GST pull-down of recombinant GST-CLPTM1L (wt or mut) with His-ERβ; glutathione beads washed six times with lysis buffer; western blot. For orientation: A western blot detects proteins with antibodies after separation by electrophoresis.

No constants are given. Whether binding was seen depends on the method and setting. In cells and extracts the contact can be indirect. Binding can be weak; no strength is given.

Regarding “recombinant His-ERβ (from UniProt Q92731 1-530)”, the binding entry is “binds”.
